PubChem BioAssay AID540256 (National Center for Advancing Translational Sciences (NCATS), 2011)
Screen size: about 300,000 compounds; about 3,700 (1.2%) were called active. Inconclusive results, whose numbers are uncertain, are shown with a selection of clear calls. The call rests on the fitted dose curve; tested in HEK293 cells. A potency beside an inconclusive call is a rough fit, not a confirmed value.

Assay: qHTS for Inhibitors of binding or entry into cells for Lassa Virus; further: nearly all actives have a fitted effect of over 50% in size
Conditions: Lassa virus pseudotype entry inhibition, cell reporter; series mostly up to 37.9 µM
Potency means the concentration at half of the fitted maximal effect.

Row | Compound | Potency
1 | C=C(C)C(=O)C=CC=Cc1ccccc1 | inconclusive: 2.11 µM [inhibitor, partial curve, poor fit]
2 | Cc1cccc(C(=O)OCC(=O)Nc2nnc(-c3ccccc3)o2)c1O | inactive
3 | CN1CCN(Cc2cc(=O)oc3ccc(Cl)cc23)CC1 | inactive
4 | O=C(CNC(=O)c1ccc(Cl)cc1)OCc1cc(=O)n2ccsc2n1 | inactive
5 | Cc1ccnc(N2C(=O)c3cccc4c([N+](=O)[O-])ccc(c34)C2=O)c1 | inconclusive: 29.1 µM [inhibitor, single point]
6 | Cc1ccc(N=Cc2cc(Cc3ccccc3Cl)cc([N+](=O)[O-])c2O)c(O)c1 | inactive
7 | Cc1ccc(Cn2cc(CCC(=O)NCc3ccccc3F)c3ccccc32)cc1 | inconclusive: 3.16 µM [activator, partial curve, poor fit]
8 | CCN(CC)S(=O)(=O)c1ccc2c(c1)N(CC(=O)N(C)Cc1ccccc1)C(=O)CO2 | inactive
9 | O=C(CC(=O)c1ccccc1O)c1cccc(F)c1 | inconclusive: 35.5 µM [inhibitor, single point]
10 | Cc1ccsc1/C=C1\CCC(C2CCCC2)C1=O (configuration not stated) | inconclusive: 12.6 µM [activator, single point]
11 | CC(C)(C)c1ccc(C2NC(=O)c3n[nH]c(-c4cccs4)c32)cc1 (configuration not stated) | inactive
12 | Cc1nn(C)c(C)c1NC(=O)COc1ccc(Cl)cc1Br | inconclusive: 5.62 µM [inhibitor, full curve, poor fit]
13 | O=C(CN1CCN(S(=O)(=O)c2ccccc2)CC1)NC(=O)NCc1ccco1 | inconclusive: 20 µM [inhibitor, single point]
14 | COc1cc(OC)c(C2C(C(=O)O)c3ccccc3C(=O)N2C)cc1OC (configuration not stated) | inactive
15 | Cc1ccc(Cl)cc1NC(=O)COCc1cc(-c2ccco2)on1 | inactive
16 | CCCC(c1nnnn1Cc1ccco1)N1CCN(c2cc(Cl)ccc2C)CC1 (configuration not stated) | inconclusive: 31.6 µM [inhibitor, single point]
17 | C=CCNc1nc(C(=O)OCC(=O)c2ccc(F)cc2)cs1 | inactive
18 | O=C(NCCSCc1ccc(Cl)cc1Cl)c1ccc(CN2CCOCC2)cc1 | inconclusive: 35.5 µM [inhibitor, single point]
19 | CCCNC(=O)NC(=O)CSc1nc2ccccc2n1CC(C)C | inconclusive: 29.1 µM [inhibitor, single point]
20 | CCOc1ccccc1NC(=O)c1cc(C(=O)c2cc(Br)ccc2O)coc1=N | inconclusive: 35.5 µM [inhibitor, single point]
21 | CC(=O)NC1=NN(C(C)=O)C(c2ccc(C)cc2)S1 (configuration not stated) | inactive
22 | CCOC(=O)C(CSCC(=O)c1ccc(Cl)cc1Cl)NC(=O)OC(C)(C)C (configuration not stated) | inconclusive: 15.8 µM [activator, partial curve, poor fit]
23 | CC1CCN(CCC(=O)Nc2ccc(Br)cc2)CC1 | inactive
24 | COc1ccc(-n2c(O)c(C=NCCN(C)C)c(=O)[nH]c2=O)cc1 | inconclusive: 20 µM [inhibitor, single point]

Given as a markdown table: part of the list above

| Row | Compound | Potency |
| --- | --- | --- |
| 1 | C=C(C)C(=O)C=CC=Cc1ccccc1 | inconclusive: 2.11 µM [inhibitor, partial curve, poor fit] |
| 4 | O=C(CNC(=O)c1ccc(Cl)cc1)OCc1cc(=O)n2ccsc2n1 | inactive |
| 10 | Cc1ccsc1/C=C1\CCC(C2CCCC2)C1=O (configuration not stated) | inconclusive: 12.6 µM [activator, single point] |
| 14 | COc1cc(OC)c(C2C(C(=O)O)c3ccccc3C(=O)N2C)cc1OC (configuration not stated) | inactive |
| 15 | Cc1ccc(Cl)cc1NC(=O)COCc1cc(-c2ccco2)on1 | inactive |

Later entries

Row | Compound | Potency
25 | Cc1cccc(-c2nc3c4ccccc4n(Cc4cccc(Cl)c4)c(=O)n3n2)c1 | inactive
26 | Cc1csc(NC(=O)CCc2c(C)nc3cc(-c4ccc(Cl)cc4)nn3c2C)n1 | inconclusive: 2.06 µM [inhibitor, full curve, poor fit]
27 | O=C(NCCCN1CCN(c2ccc(F)cc2)CC1)c1cnn(-c2ccc(F)cc2)c1-n1cccc1 | inconclusive: 15.8 µM [activator, single point]
28 | CCOc1ccc(NC(=O)CN2CCN(CC(=O)c3ccc(OCC)cc3)CC2)cc1 | inconclusive: 11.2 µM [inhibitor, partial curve]
29 | CCN(CC)C(=O)C1CCCN(C(=O)CCn2nnnc2CN2CCOCC2)C1 (configuration not stated) | inactive
30 | O=C(NCc1ccc(F)cc1)c1cccnc1C(=O)O | inconclusive: 1 µM [inhibitor, single point]
31 | COc1cc(/C=N/N=C2/NC(=O)C(Cc3ccc(F)cc3)S2)ccc1O (configuration not stated) | inconclusive: 11.2 µM [inhibitor, partial curve, poor fit]
32 | Cc1ccc(NC(=O)CSCC(=O)N=c2sccn2C)cc1 | inactive
33 | CCc1cccc(NS(=O)(=O)c2ccc(-n3cccn3)cc2)c1 | inactive
34 | Cc1ccc2nc(-c3ccc(NC(=S)NC(=O)CC(C)C)cc3)sc2c1 | inconclusive: 2.91 µM [activator, single point]
35 | O=C(Nc1ccc(F)cc1F)c1cc(-c2ccc(Cl)cc2)on1 | inactive
36 | CCOC(=O)c1ccc(NC(=O)CCn2c(=O)c3cccn3c3cccnc32)cc1 | inactive
37 | COc1ccc(CNCCS(=O)(=O)NCc2ccccc2)cc1 | inconclusive: 35.3 µM [activator, single point]
38 | COc1ccc(-c2nnc(SCC(=O)Nc3cc(C)on3)o2)cc1 | inconclusive: 17.8 µM [activator, partial curve, poor fit]
39 | Cc1ccccc1-c1noc(-c2cccnc2N2CCN(c3ccccc3)CC2)n1 | inactive
40 | O=C(O)c1cccc(-c2nnn(Cc3ccccc3)n2)c1 | inconclusive: 10 µM [inhibitor, partial curve]
41 | Cc1cccc(N2CCN(C(=O)COc3cc4oc(=O)cc(C)c4cc3Cl)CC2)c1C | inconclusive: 3.16 µM [inhibitor, partial curve, poor fit]
42 | COc1cccc(C(=O)Nc2cccc(-c3cn4ccsc4n3)c2)c1OC | inactive
43 | CCCCS(=O)(=O)CC(O)CSc1nc(-c2ccc(C)cc2)cc(-c2ccccc2)c1C#N (configuration not stated) | inconclusive: 7.08 µM [inhibitor, full curve, poor fit]
44 | Cc1cc(C)nc(NC(=O)Cc2ccc(Cl)cc2)c1 | inconclusive: 2.82 µM [inhibitor, full curve, poor fit]
45 | COc1cccc(CNCc2ccc(C(=O)O)cc2)c1OC | inconclusive: 25.1 µM [activator, partial curve, poor fit]
46 | CCn1cc(C(=O)N2CCN(c3cccc(Cl)c3)CC2)c2cc(OC)c(OC)cc2c1=O | inconclusive: 35.5 µM [inhibitor, single point]
47 | COc1cc(NC(=O)COC(=O)c2ccc(C)c(S(=O)(=O)N3CCCCC3)c2)c(C)cc1[N+](=O)[O-] | inactive
48 | CN(C)S(=O)(=O)Oc1cccc(C(=O)Nc2cccc(Cl)c2)c1 | inconclusive: 18.3 µM [inhibitor, single point]

Row | Compound | Potency
49 | CC(C)Oc1ccc(C(=O)NC2CCN(Cc3ccccc3)CC2)cc1 | inactive
50 | N#CC1(NC(=O)CN2c3cccc4cccc(c34)S2(=O)=O)CCCCC1 | inactive
51 | Cc1cc(CSc2ccccc2)ccc1NC(=O)c1ccc(CN2CCOCC2)cc1 | inconclusive: 16.4 µM [inhibitor, partial curve, poor fit]
52 | COc1cccc(/C=N/NC(=O)C(C)n2nc(C)c([N+](=O)[O-])c2C)c1O (configuration not stated) | inconclusive: 14.6 µM [inhibitor, partial curve, poor fit]
53 | CCOC(=O)c1c(C)oc2c1c(C=NCC1CCCO1)c(O)c1ccccc12 (configuration not stated) | inactive
54 | COc1cc(NS(=O)(=O)c2cc3c(cc2C)N(C)CCO3)cc(OC)c1OC | inactive
55 | O=C(COc1ccc(/C=N/NC(=O)c2ccccc2)cc1)Nc1ccc([N+](=O)[O-])cc1 | inconclusive: 1.26 µM [activator, single point]
56 | COc1cc(C(c2nnnn2C2CCCC2)N2CCN(C(=O)c3ccco3)CC2)cc(OC)c1OC (configuration not stated) | inconclusive: 1.26 µM [inhibitor, single point]
57 | CN(C)CCC=C1c2ccccc2CCc2ccccc21 | active: 9.2 µM
58 | CC(=O)c1ccc2c(c1)C1C(Cl)C(Sc3ccccc3[N+](=O)[O-])CC1C(c1ccccc1[N+](=O)[O-])N2 (configuration not stated) | inconclusive: 11.2 µM [inhibitor, partial curve, poor fit]
59 | CCN(CC)c1ccc(/C=N/NC(=O)c2c[nH]c3ccccc23)cc1 | active: 11.2 µM
60 | CCC1C(=O)Nc2ccccc2N1C(=O)COc1ccccc1 (configuration not stated) | inactive
61 | Cc1cc(C)c(C)c(S(=O)(=O)N2CCC(C(=O)N(C)Cc3nc4ccccc4c(=O)[nH]3)CC2)c1C | inconclusive: 35.5 µM [inhibitor, single point]
62 | Cc1ccc(-n2c3c(cc(-c4nc(-c5ccc(Cl)cc5)cs4)c2=O)C(=O)CC(C)(C)C3)cc1C | inactive
63 | O=C(CCN1C(=O)/C(=C/c2ccccc2F)SC1=S)Nc1cccnc1 | inactive
64 | CCc1cccc(NC(=O)CCS(=O)(=O)c2cccc3nonc23)c1 | inconclusive: 2.91 µM [activator, partial curve, poor fit]
65 | NNC(=O)c1cc2c(s1)-c1cc(Cl)ccc1SC2 | inconclusive: 2 µM [activator, full curve, poor fit]
66 | Cc1ccccc1OCC(=O)NNC(=O)c1ccc2c(=O)n3c(nc2c1)CCC3 | inactive
67 | COc1ccccc1-c1cc2nc(C)c(CCC(=O)O)c(C)n2n1 | inconclusive: 1.26 µM [inhibitor, full curve]
68 | COc1ccccc1NC(=O)Cn1c(=O)n(CCC(=O)NCC2CCCO2)c(=O)c2cc(OC)c(OC)cc21 (configuration not stated) | inactive
69 | Cc1ccc(C(C)(C)NC(=O)C2CCC(=O)N(Cc3ccccc3F)C2)cc1 (configuration not stated) | inactive
70 | Cc1ccc2nc(-c3ccc(O)cc3)c(Nc3ccc(Cl)cc3)n2c1 | inconclusive: 3.98 µM [inhibitor, partial curve, poor fit]
71 | CCC(=O)N1CCc2cc(S(=O)(=O)NCCC(=O)Nc3cc(C)ccc3OC)ccc21 | inactive
72 | COc1ccc(C(=O)/C=C/Nc2cccc(C)n2)cc1OC | inconclusive: 4.47 µM [activator, partial curve, poor fit]
